No constants are given. Whether binding was seen depends on the method and setting. Binding calls can cover weak binding; strength is not graded here. Where a sequence is shown, tags or fusion partners need not be part of it.
What was measured:
[1] = target: Necl1 expressed on transfected COS-7 cells (pC3-Necl1) (rat) (UniProt Q1WIM3); test: Fc-fusion binding to transfected COS-7 cells, fluorescence microscopy
[2] = target: Necl3 expressed on transfected COS-7 cells (pC3.1-Necl3-myc/his) (mouse) (UniProt Q8BLQ9); test: as above
[3] = target: Necl4 expressed on transfected COS-7 cells (pC3.1-Necl4) (mouse/rat (chimeric)); test: as above
[4] = target: Necl4 expressed on transfected COS-7 cells (pC3.1-Necl4) (mouse/rat (chimeric)); test: Fc-fusion binding to transfected COS-7 cells, used to show expression (insets of FIG. 4A)

The chains behind the UniProt entries cited, without tags or fusion partners. Where a name states a change or a piece, a line headed by the entry shows the natural chain unless it says otherwise.
UniProt Q1WIM3: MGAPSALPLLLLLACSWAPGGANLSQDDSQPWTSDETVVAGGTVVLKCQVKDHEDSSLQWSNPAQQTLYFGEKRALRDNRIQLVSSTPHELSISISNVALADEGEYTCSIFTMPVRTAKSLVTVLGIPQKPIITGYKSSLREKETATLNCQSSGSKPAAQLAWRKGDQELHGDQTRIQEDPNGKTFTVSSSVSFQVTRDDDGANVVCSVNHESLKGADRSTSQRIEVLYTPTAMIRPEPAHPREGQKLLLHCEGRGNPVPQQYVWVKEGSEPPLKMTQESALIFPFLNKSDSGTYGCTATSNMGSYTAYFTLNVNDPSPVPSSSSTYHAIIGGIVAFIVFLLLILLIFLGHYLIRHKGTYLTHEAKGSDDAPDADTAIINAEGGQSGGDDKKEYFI
UniProt Q8BLQ9: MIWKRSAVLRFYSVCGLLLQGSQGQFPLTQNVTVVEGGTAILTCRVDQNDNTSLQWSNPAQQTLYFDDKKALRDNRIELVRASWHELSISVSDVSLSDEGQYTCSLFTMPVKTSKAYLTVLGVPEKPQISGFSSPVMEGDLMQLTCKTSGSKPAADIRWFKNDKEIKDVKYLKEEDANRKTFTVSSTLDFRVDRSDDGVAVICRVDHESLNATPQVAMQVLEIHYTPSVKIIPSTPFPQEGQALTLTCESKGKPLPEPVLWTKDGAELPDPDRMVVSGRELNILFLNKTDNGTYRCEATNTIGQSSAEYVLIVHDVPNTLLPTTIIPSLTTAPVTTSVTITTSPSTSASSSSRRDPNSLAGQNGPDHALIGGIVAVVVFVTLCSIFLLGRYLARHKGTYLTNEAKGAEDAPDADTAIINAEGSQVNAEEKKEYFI

binding [1]: binds
binding [2]: binds
binding [3]: binds
binding [4]: binds
B1: Necl1-Fc (extracellular domain of Necl1 fused to the constant region of human IgG1) (Fc fusion)
chain: NLSQDGYWQEQDLELGTPAPLEEALSSTVWSNPDLLASQDSQPWTSDETVVAGGTVVLKCQVKDHEDSSLQWSNPAQQTLYFGEKRALRDNRIQLVSSTPHELSISISNVALADEGEYTCSIFTMPVRTAKSLVTVLGIPQKPIITGYKSSLREKETATLNCQSSGSKPAAQLAWRKGDQELHGDQTRIQEDPNGKTFTVSSSVSFQVTRDDDGANVVCSVNHESLKGADRSTSQRIEVLYTPTAMIRPEPAHPREGQKLLLHCEGRGNPVPQQYVWVKEGSEPPLKMTQESALIFPFLNKSDSGTYGCTATSNMGSYTAYFTLNVNDPSPVPSSSST
notes: Produced in HEK 293T cells; also called soluble Necl1; Nel1-Fc; not shown: constant region (Fc) of human IgG1

Reference: patent US20100150924A1 (published 2010)
